In patent US20100222401A1 (UNIVERSITY OF UTAH RESEARCH FOUNDATION, published 2010):

Biological target: T1, Robo4 cytoplasmic tail-HA (UniProt Q8C310 494-1012, limits assumed)
T1 construct: domain: cytoplasmic tail; Expressed in HEK 293 cells for co-immunoprecipitation; also called Robo4 tail
T1 sequence (looked up): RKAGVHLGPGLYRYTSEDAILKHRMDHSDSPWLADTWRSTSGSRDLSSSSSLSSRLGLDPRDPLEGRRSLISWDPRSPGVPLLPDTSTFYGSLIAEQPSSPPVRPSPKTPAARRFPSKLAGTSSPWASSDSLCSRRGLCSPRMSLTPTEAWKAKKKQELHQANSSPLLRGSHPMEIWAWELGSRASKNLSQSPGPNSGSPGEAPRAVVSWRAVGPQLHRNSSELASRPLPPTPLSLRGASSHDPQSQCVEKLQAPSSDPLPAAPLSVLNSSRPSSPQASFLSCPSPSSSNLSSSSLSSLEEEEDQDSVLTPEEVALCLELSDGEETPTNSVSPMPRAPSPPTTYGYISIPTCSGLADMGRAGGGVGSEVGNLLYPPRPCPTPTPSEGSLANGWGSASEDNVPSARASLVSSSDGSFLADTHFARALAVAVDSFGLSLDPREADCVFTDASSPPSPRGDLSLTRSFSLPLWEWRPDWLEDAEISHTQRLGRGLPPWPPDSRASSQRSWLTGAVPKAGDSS
Experiment: co-immunoprecipitation (anti-HA IP, anti-V5 blot), HEK 293 cells

B1: paxillin-LD (other, murine, UniProt Q8VI36 1-355, looked up, not shown: small tags and cut ends)
chain: MDDLDALLADLESTTSHISKRPVFLSEEPPYSYPTGNHTYQEIAVPPPVPPPPSSEALNGTVLDPLDQWQPSGSRYAHQQPPSPLPVYSSSAKNSSASNTQDGVGSLCSRAGEEEHVYSFPNKQKSAEPSPTVMSSSLGSNLSELDRLLLELNAVQHSPPGFPADEAESSPPLPGALSPLYGIPENNTPLGGKAGPLVKEKPKRNGGRGLEDVRPSVESLLDELESSVPSPVPAITVNQGEMSSPQRVTSSQQQTRISASSATRELDELMASLSDFKMQGLEQRVDGERPWAAGWPPSSRQSSPEGQDEGGFMAQGKTGSSSPPGGLSKPGSQLDSMLGSLQSDLNKLGVATVAK
notes: domain: LD repeats
B1: no binding.
